Results are given in words; binding and its absence hold for the method and conditions named. Some entries that bind do so weakly or less than the wild type. Each block holds one binder with its values, some of them ahead of it.
Legend:
Bet v 1 (Birch) [1] = target: T1, Bet v 1 (Birch) (UniProt P15494); test: radio immuno assay, antibody on Protein G Sepharose, 125I-labelled Bet v 1
T1 sequence (125I label (chloramine-T) on the radiolabelled form, looked up): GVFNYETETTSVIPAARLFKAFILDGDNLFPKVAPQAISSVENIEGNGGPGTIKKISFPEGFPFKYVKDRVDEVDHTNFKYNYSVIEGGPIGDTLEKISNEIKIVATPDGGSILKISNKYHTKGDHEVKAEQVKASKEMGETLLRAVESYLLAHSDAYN

Bet v 1 (Birch) [2] = target: T1, Bet v 1 (Birch); test: gel filtration fractions tested with 125I-labelled Bet v 1 and Protein-G sepharose
Bet v 1 (Birch) [3] = target: T1, Bet v 1 (Birch); test: summary of the results (radio immuno assay of Example 49)
Bet v 1 (Birch) [4] = target: T1, Bet v 1 (Birch); test: crosslinking radio immuno assay, Bet v 1 Sepharose and 125I-labelled Bet v 1

binding (Bet v 1 (Birch) [1]): binds
binding (Bet v 1 (Birch) [2]): binds
binding (Bet v 1 (Birch) [3]): binds
binding (Bet v 1 (Birch) [4]): binds
B1: Betv1-HG (antibody, V domains shown)
VH: EVQLQQSGAELVKPGASVKLSCTASGFNIKDTYIHWVKQRPEQGLEWVGRIDPATGNTRYDPKFQGKATITADTSSNTAYLQLSSLTSEDTAVYYCASFRPGYALDYWGQGTSVTVSS
VL: DIVMTQSHKFMSTSVGDRVSFTCKASQDVFTAVAWYQQKPGQSPKLLIYWASTRRTGVPDRFTGSGSGTDYTLTISSVQAEDLALYYCQQHFSTPPTFGGGTKLEIKR

binding (Bet v 1 (Birch) [1]): binds
binding (Bet v 1 (Birch) [4]): binds
B2: Betv1-IgG1 (antibody, not shown: a dimerising Fc or GST)
heavy: B1 VH
light: DIVMTQSHKFMSTSVGDRVSFTCKASQDVFTAVAWYQQKPGQSPKLLIYWASTRRTGVPDRFTGSGSGTDYTLTISSVQAEDLALYYCQQHFSTPPTFGGGTKLEIKRTVAAPSVFIFPPSDEQLKSGTASVVCLLNNFYPREAKVQWKVDNALQSGNSQESVTEQDSKDSTYSLSSTLTLSKADYEKHKVYACEVTHQGLSSPVTKSFNRGEC
